Results taken from PubChem BioAssay AID2685 (National Center for Advancing Translational Sciences (NCATS), 2010).
This is one part of the list. Further columns of the screen follow, without active or inactive calls. The list favours compounds with an active or inconclusive main result. Words in brackets tell the shape of the fitted curve; partial curves, single points and poor fits give uncertain potencies.

Experiment: qHTS Assay for Lipid Storage Modulators in Drosophila S3 Cells;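 for cell number change: cells counted by Cell Tracker Red CMTPX staining in the red channel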
Conditions: BODIPY lipid droplet fluorescence, 18-24 h; for cell number change: measured here: cell count max response, cells fed with added oleic acid
Outline: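 Drosophila S3 cells loaded with oleic acid (400 uM, as added) and compounds at several concentrations; lipid droplets imaged by 488-nm laser-scanning cytometry, 500–530 nm intensity and object ratio to cell channel. Percent activity normalized to 20 uM Triacsin C.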

[1] = measured here: cell number channel AC50, cells fed with added oleic acid
[2] = measured here: lipid fluorescence (Fed channel) AC50, cells fed with added oleic acid

Row | SMILES | cell number change [%] | AC50 [1] | AC50 [2]
1 | Cc1ccc2c(c1)C(CCN)C(=O)N2Cc1ccccc1 (stereo unspecified) | 48.8 | 25.9 µM [rising, single point] | 0.366 µM [falling, full curve, poor fit]
2 | O=C1CC(c2ccc(Cl)cc2)CC(=O)C1CS(=O)(=O)c1ccccc1 (stereo unspecified) | 30.7 | 6.51 µM [rising, full curve, poor fit] | 25.9 µM [rising, single point]
3 | C=CCSc1nc2ccsc2c(=O)n1-c1cccnc1 | 41 | 32.6 µM [rising, single point] | 
4 | O=C(N/N=C/c1cccc(C(F)(F)F)c1)c1ccc(O)cc1 |  |  | 29.1 µM [rising, single point]
5 | CCc1ccc(Nc2nc(N3CCOCC3)nc(N3CCOCC3)n2)cc1 | -5.6 |  | 
6 | Cc1cccc(N(Cc2ccc(Cl)cc2)S(C)(=O)=O)c1 | -53.2 | 0.00411 µM [falling, full curve, poor fit] | 
7 | O=[N+]([O-])c1cc(S(=O)(=O)C(F)(F)F)ccc1Sc1nc2ccccc2[nH]1 |  |  | 29.1 µM [falling, single point]
8 | COc1cc(NC(=O)COC(=O)CC(C)(C)C)c(C)cc1[N+](=O)[O-] | -6.41 | 0.13 µM [rising, full curve] | 0.206 µM [rising, full curve]
9 | Cc1nn(Cc2ccccc2)c(C)c1NC(=O)c1cc2nc(-c3ccco3)cc(C(F)(F)F)n2n1 | -32.6 |  | 5.17 µM [rising, single point]
10 | CCCCCOc1ccc(C2C(C(=O)c3ccc(C)o3)=C(O)C(=O)N2c2cc(C)on2)cc1 (stereo unspecified) | 11.1 |  | 
11 | N#Cc1c(SCC(=O)O)nc(-c2ccccc2)c2c1CCCC2 | -33.2 | 6.51 µM [falling, full curve, poor fit] | 
12 | COc1ccc(CNC(=O)c2sc(=S)n(-c3ccc(OC)cc3)c2N)cc1 |  | 0.82 µM [rising, partial curve] | 0.82 µM [rising, partial curve]
13 | Cc1ccc(NS(=O)(=O)c2ccc(-c3cnc(C4CC4)o3)cc2)cc1 | -57.6 | 29.1 µM [falling, single point] | 29.1 µM [falling, single point]
14 | O=C(O)CCNc1cc(N2CCN(C(=O)c3ccco3)CC2)c2noc3c2c1C(=O)c1ccccc1-3 | -37.2 | 32.6 µM [falling, single point] | 
15 | CC(NC(=O)c1ccc(CS(C)(=O)=O)cc1)c1ccc(-c2ccccc2)cc1 (stereo unspecified) | 237 | 20.6 µM [rising, partial curve] | 5.62 µM [rising, single point]

Reformatted as tab-separated lines: 4 of the compounds above.
Row	SMILES	cell number change [%]	AC50 [1]	AC50 [2]
2	O=C1CC(c2ccc(Cl)cc2)CC(=O)C1CS(=O)(=O)c1ccccc1 (stereo unspecified)	30.7	6.51 µM [rising, full curve, poor fit]	25.9 µM [rising, single point]
3	C=CCSc1nc2ccsc2c(=O)n1-c1cccnc1	41	32.6 µM [rising, single point]	
4	O=C(N/N=C/c1cccc(C(F)(F)F)c1)c1ccc(O)cc1			29.1 µM [rising, single point]
5	CCc1ccc(Nc2nc(N3CCOCC3)nc(N3CCOCC3)n2)cc1	-5.6		
